The source of these data is publication PMC9458724.

By UniProt entry, the sequences of proteins in these tests, tags left out. Residues count along the entry.
UniProt Q9H0Q3, residues 19-95: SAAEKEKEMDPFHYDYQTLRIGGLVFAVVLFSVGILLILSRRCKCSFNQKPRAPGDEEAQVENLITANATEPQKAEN

In the assay the target is human α3 subunit of the Na+/K+-ATPase, wild type, Flag-tagged (human) (UniProt P13637). In words: cryo-EM structure; α3/β1/FXYD6 complex co-expressed in HEK 293F cells and co-purified by the Flag tag on α3 and size exclusion chromatography, in 0.06% digitonin, 20 mM HEPES pH 7.4, 150 mM NaCl or KCl; 4 mg/ml on grids; wild type trapped with ADP-AlF4- (E1•P-ADP) or MgF4 2- (E2•Pi); 4A mutant alone (E1), with AMPPCP (E1•ATP) or BeF3- (E2P); both purified. In general terms: In gel filtration, larger molecules generally elute earlier.

No constants are given. Whether binding was seen depends on the method and setting. Some results given as binding are weak or reduced against the parent protein; the word gives no strength.

With human FXYD6 (from UniProt Q9H0Q3 19-95), the binding entry is given as “binds”.
